# In paper PMC7464485, “Antimicrobial Activities of Highly Bioavailable Organic Salts and Ionic Liquids from Fluoroquinolones” (Pharmaceutics, 2020):
# Like-named read-outs stand apart in the source and are kept apart here.
# How the values were obtained:
# Format in all cases: cell-based
# [1] = test system: 3T3 mouse fibroblasts; experiment: Cytotoxicity on 3T3 cells (MTT)
# Protocol: The toxicity of the prepared FQ–OSILs and corresponding starting materials, namely, starting fluoroquinolones and halide salts, on 3T3 mouse fibroblasts was determined. Figure 4 plots the relative 3T3 cell viability in the presence of the starting materials and the FQ–OSILs at 10 µM.
# 0.54 ± 0.02 [Error! Bookmark not 0.84 ± 0.02 [Error! Bookmark not
# Norfloxacin defined.] defined.]
# (0.37 ± 0.02) [Error! Bookmark not (0.85 ± 0.04) [Error! Bookmark not […]
# Critical micelle concentration
# The critical micelle concentrations of the organic salts based on fluoroquinolones with cations bearing surfactant properties were calculated using ionic conductivity measurements. […] The cell temperature was measured by means of a PT100 platinum resistance sensor coupled to a Keithly 199 System […]
# The probe was previously calibrated against high accuracy mercury thermometers at different temperatures. […] After each addition, the mixture was stirred to obtain a homogeneous solution, and the ionic conductivity was measured. […]
# For subculture, 3T3 cells were dissociated using trypsin-EDTA (Sigma, USA), splitted 1:5 ratio, and seeded into Petri dishes with 25 cm2 of growth area. […] Cytotoxicity was evaluated on 3T3 cells' viability after cells reached total confluence. […]
# [2] = test system: Klebsiella pneumoniae (ATCC 11296); experiment: Antimicrobial activity (growth, OD 600 nm); details: for IC50: Klebsiella pneumoniae
# [3] = test system: Staphylococcus aureus (ATCC 25923); experiment: Antimicrobial activity (growth, OD 600 nm)
# [4] = test system: Bacillus subtilis (ATCC 6633); experiment: Antimicrobial activity (growth, OD 600 nm)
smiles,measurement,setting,value
"CCCCCCCCCCCCCCCC[n+]1ccccc1.[Cl-] [[C16Py]Cl, reference compound]",IC50,[1]; NIH3T3,5460 nM
same,IC50,"[1]; NIH3T3, 24 h",5460 nM
same,growth inhibition K. pneumoniae,"[2]; 10 µM, 6 h",effective antimicrobial effect
same,IC50,"[2]; ATCC11296, read-out: IC50 K. pneumoniae, 0.001–10 µM",2340 nM
same,IC50,"[2]; ATCC11296, read-out: IC50 K. pneumoniae, see Table S2",2550 nM
same,growth inhibition S. aureus,"[3]; 10 µM, 6 h",effective antimicrobial effect
same,IC50,"[3]; Staphylococcus aureus, ATCC25923, read-out: IC50 S. aureus",3250 nM
same,growth inhibition B. subtilis,"[4]; 10 µM, 6 h",effective antimicrobial effect
same,IC50,"[4]; Bacillus subtilis, ATCC6633, read-out: IC50 B. subtilis",2550 nM
